The values that follow come from PMC4192513, “A Novel Protein-Protein Interaction in the RES (REtention and Splicing) Complex” (The Journal of Biological Chemistry, 2014).

Chains of the proteins cited; added tags and fusions are not shown. Lines headed by an entry give the natural chain unless they say otherwise; changes in a name come on top.
UniProt P46947: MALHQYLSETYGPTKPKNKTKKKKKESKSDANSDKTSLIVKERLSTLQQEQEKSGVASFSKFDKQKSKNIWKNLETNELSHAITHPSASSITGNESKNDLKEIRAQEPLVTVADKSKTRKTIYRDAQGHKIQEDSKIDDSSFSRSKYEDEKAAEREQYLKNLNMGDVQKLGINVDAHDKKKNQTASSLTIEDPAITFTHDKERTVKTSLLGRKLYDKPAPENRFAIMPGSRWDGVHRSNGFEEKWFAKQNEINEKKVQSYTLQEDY

Changes are numbered by the printed parent chain. These are yes or no findings as the source states them, for the method shown. For some of these results: In cells and extracts the contact can be indirect. Some entries that bind do so weakly or less than the wild type. For some of these results: Where a sequence is shown, tags or fusion partners need not be part of it.

The target of test [1] is T1, His6-Snu17p (wild type, operon co-expression) (S. cerevisiae) (UniProt P40565).
T1 sequence: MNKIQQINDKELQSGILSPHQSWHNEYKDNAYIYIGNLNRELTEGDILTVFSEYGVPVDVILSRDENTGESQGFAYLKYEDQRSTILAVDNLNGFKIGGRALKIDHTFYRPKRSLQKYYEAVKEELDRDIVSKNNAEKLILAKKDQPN
Kind of test: pull-down; one-step Ni-NTA purification of His6-Snu17p, Bud13p and Pml1p co-expressed from an operon in E. coli; fractions on Coomassie-stained denaturing gels.

In test [2] the target is T2, His6-Snu17p F95A,K96D,I97A (operon co-expression) (S. cerevisiae) (UniProt P40565).
T2 sequence: T1 sequence with F95A, K96D, I97A
The description is as above.

Test [3] has as its target T3, Snu17p (residues 25-113) (S. cerevisiae) (UniProt P40565).
T3 sequence: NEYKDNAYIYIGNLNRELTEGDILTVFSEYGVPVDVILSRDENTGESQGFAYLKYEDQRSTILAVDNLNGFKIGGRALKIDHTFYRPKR
Kind of test: NMR solution structure; Snu17p residues 25-113 with Bud13p residues 222-256; subunit-selective isotope labelling; 129 intermolecular NOE restraints; 298 K, NMR buffer; both purified.

In test [4] the target is T3, Snu17p (residues 25-113) (S. cerevisiae). Kind of test: NMR titration; data not shown: chemical shift perturbations of the shorter Snu17p (residues 25-113) on binding of Bud13p; both purified.

Take “Bud13p (wild type, operon co-expression) (from UniProt P46947 1-266)”: the binding entry in test [1] and in test [2] was “binds” throughout.

Consider “Bud13p (residues 222-256) (from UniProt P46947 222-256) (peptide)”, for which the binding result in test [3] and in test [4] was “binds” in each case.
